From PMC5430869, “Structure-function analysis of the DNA-binding domain of a transmembrane transcriptional activator”
No constants are given. Whether binding was seen depends on the method and setting.

What was measured:
[1] = target: CadC DNA-binding domain (amino acids 1-107) (E. coli) (UniProt P23890); assay: crystal structure; CadC 1-107 alone; one molecule in the asymmetric unit; 10 mM MES pH 6.5, 10 mM zinc sulphate, 27.5% PEG550 MME; both purified
[2] = target: CadC DNA-binding domain (amino acids 1-107) (E. coli) (UniProt P23890); assay: SAXS; CadC 1-107 alone at 200 uM; 20 mM BisTris, 150 mM NaCl, pH 6.5; molecular weight from the Porod volume; both purified
[3] = target: CadC DNA-binding domain (amino acids 1-107) (E. coli) (UniProt P23890); assay: NMR 15N relaxation (tumbling correlation time); CadC 1-107 alone; 20 mM BisTris, 150 mM NaCl, pH 6.5, 10% D2O; 298 K, 600 MHz; both purified

B1: CadC DNA-binding domain (amino acids 1-107) (domain or fragment, UniProt P23890 1-107)
chain: MQQPVVRVGEWLVTPSINQISRNGRQLTLEPRLIDLLVFFAQHSGEVLSRDELIDNVWKRSIVTNHVVTQSISELRKSLKDNDEDSPVYIATVPKRGYKLMVPVIWY
binding [1]: no binding
binding [2]: no binding (tested: 200 μM)
binding [3]: no binding
